Data source: PubChem BioAssay AID1259308 (NCATS, 2017)

Test: 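Candidate targets for better recombinant protein yield in mammalian cells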 (primary screen)
System: human HEK293 embryonic kidney cells stably expressing firefly luciferase (HEK-CMV-Luc2-Hygro)
Knock-down reagent: single siRNA against human genes, 0.8 pmol siRNA per well
Timing: 72 h
Measured: 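Reporter luminescence and viable-cell signal on separate replicate plates, given as percent of non-targeting control and median/MAD z-scores, plus per-cell luciferase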
Direction: total luciferase, z-score: higher = more reporter protein produced
Call rule: 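Active when the median/MAD z-score for overall luciferase is greater than 3; a gene was taken forward for validation with new siRNAs if at least two of its three siRNAs passed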
Meaning of the calls: active = raised luciferase; inactive = no rise
In all, the deposit lists about 59,000 reagents; below is a random part of them. In the full data, about 1,510 (2.6%) are marked active. 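Calls use total luciferase alone and ignore viability, so some active siRNAs may act by altering cell number.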 Reagents against one gene are numbered here. Not all columns of the deposit are shown.

total luciferase, z-score, by target gene and reagent
HES1 (GeneID 3280): #1 -1.26 inactive; #2 -1.22 inactive; #3 0.715 inactive
EFHB (GeneID 151651): #1 0.147 inactive; #2 -0.488 inactive; #3 -2.1 inactive
MMACHC (GeneID 25974): #1 0.153 inactive; #2 0.205 inactive; #3 -0.518 inactive
TFDP1P2 (GeneID 441488): #1 0.538 inactive; #2 -2.07 inactive; #3 -0.847 inactive
MYL12BP2 (GeneID 391722): #1 -0.126 inactive; #2 -0.814 inactive; #3 0.346 inactive
PTPN9 (GeneID 5780): #1 -1.2 inactive; #2 0.684 inactive; #3 -0.851 inactive
RNF112 (GeneID 7732): #1 1.66 inactive; #2 0.135 inactive; #3 -0.456 inactive
NIPBL (GeneID 25836): #1 -0.101 inactive; #2 0.413 inactive; #3 -0.111 inactive
IFNK (GeneID 56832): #1 -0.0122 inactive; #2 -0.242 inactive; #3 0.782 inactive
KATNBL1 (GeneID 79768): #1 0.755 inactive; #2 -1.58 inactive; #3 -0.154 inactive
OR1B1 (GeneID 347169): #1 0.695 inactive; #2 4.14 active; #3 2.05 inactive
EBLN1 (GeneID 340900): #1 -1.45 inactive; #2 3.91 active; #3 1.04 inactive
FIMP1 (GeneID 146378): #1 -0.742 inactive; #2 -1.24 inactive; #3 -0.586 inactive
GALK1 (GeneID 2584): #1 -1.1 inactive; #2 -0.93 inactive; #3 0.303 inactive
TIMCCP1 (GeneID 387071): #1 0.321 inactive; #2 1.71 inactive; #3 0.906 inactive
SEMA6B (GeneID 10501): #1 1.12 inactive; #2 0.112 inactive; #3 0.918 inactive
H2AJ (GeneID 55766): #1 -0.0535 inactive; #2 0.308 inactive; #3 0.05 inactive
SEMA5A (GeneID 9037): #1 -0.0548 inactive; #2 -0.821 inactive; #3 -0.285 inactive
TECTB (GeneID 6975): #1 -1.71 inactive; #2 1.72 inactive; #3 1.73 inactive

Active calls, among the entries above:
total luciferase, z-score, by target gene and reagent
OR1B1 (GeneID 347169): #2 4.14 active
EBLN1 (GeneID 340900): #2 3.91 active
